Measurements as given in PMC12815711.
No constants are given. Whether binding was seen depends on the method and setting. In cells and extracts the contact can be indirect. Some binding calls cover weakened binding; strength is not graded here.

Amino acid sequences for entries named in this document (tags omitted).
UniProt O00567: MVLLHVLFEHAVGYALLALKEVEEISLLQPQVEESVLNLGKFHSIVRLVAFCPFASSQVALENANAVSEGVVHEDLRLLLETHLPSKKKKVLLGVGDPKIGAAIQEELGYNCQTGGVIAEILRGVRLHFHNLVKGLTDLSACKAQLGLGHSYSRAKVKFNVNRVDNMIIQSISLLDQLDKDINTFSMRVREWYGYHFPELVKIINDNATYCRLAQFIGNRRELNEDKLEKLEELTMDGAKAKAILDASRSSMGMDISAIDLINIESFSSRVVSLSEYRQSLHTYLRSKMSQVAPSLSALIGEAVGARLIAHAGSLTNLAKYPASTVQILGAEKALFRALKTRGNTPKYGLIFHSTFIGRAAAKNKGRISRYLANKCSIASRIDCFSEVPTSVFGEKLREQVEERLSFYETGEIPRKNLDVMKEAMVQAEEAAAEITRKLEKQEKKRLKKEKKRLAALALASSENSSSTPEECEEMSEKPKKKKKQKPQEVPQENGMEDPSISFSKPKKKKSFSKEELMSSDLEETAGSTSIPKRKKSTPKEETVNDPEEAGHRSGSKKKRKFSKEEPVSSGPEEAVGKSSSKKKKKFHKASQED

T1: Fibrillarin (FBL) (human (endogenous in HCC cells)) (UniProt P22087)
T1 sequence: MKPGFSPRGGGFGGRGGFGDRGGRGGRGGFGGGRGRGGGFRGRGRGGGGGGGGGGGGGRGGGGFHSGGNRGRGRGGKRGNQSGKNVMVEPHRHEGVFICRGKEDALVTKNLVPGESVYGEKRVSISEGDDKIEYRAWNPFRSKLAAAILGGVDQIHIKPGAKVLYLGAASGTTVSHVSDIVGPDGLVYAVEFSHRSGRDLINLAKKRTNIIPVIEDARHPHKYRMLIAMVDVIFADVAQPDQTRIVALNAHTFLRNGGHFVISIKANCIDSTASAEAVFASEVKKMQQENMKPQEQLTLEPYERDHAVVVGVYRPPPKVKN


Columns and labels:
[1] = target: T1, Fibrillarin (FBL) (human (endogenous in HCC cells)); assay: co-IP; HCC cell lysates in IP buffer with protease inhibitors, pre-cleared with Protein A/G beads, incubated overnight at 4°C with anti-NOP56 or anti-FBL antibodies; SDS-PAGE, silver staining and reciprocal Western blotting
[2] = target: Nucleolar protein 5A (NOP56) (human (endogenous in HCC cells)) (UniProt O00567); assay: as above

| binding [1] | binding [2] | Molecule |
| --- | --- | --- |
| binds |  | Nucleolar protein 5A (NOP56) (from UniProt O00567 1-594) |
|  | binds | Fibrillarin (FBL) (protein, UniProt P22087 1-321) MKPGFSPRGGGFGGRGGFGDRGGRGGRGGFGGGRGRGGGFRGRGRGGGGGGGGGGGGGRGGGGFHSGGNRGRGRGGKRGNQSGKNVMVEPHRHEGVFICRGKEDALVTKNLVPGESVYGEKRVSISEGDDKIEYRAWNPFRSKLAAAILGGVDQIHIKPGAKVLYLGAASGTTVSHVSDIVGPDGLVYAVEFSHRSGRDLINLAKKRTNIIPVIEDARHPHKYRMLIAMVDVIFADVAQPDQTRIVALNAHTFLRNGGHFVISIKANCIDSTASAEAVFASEVKKMQQENMKPQEQLTLEPYERDHAVVVGVYRPPPKVKN |
